No constants are given. Whether binding was seen depends on the method and setting. Binding can be weak; no strength is given. Tags and fused reporters may be left off the sequences shown.
Biological target: small subunit of Rubisco (rbcS) (Arabidopsis thaliana)
Assay: summary of the IPMS result

binding: binds
B1: PRL-1-eGFP (C-terminal GFP fusion with PRL-1, ribulose bisphosphate carboxylase/oxygenase large subunit-related, Potri.012G062600) (protein, not shown: large carriers)
chain: MGHQPRLGHDRPYGVVGRTGFSFLQRTCSLIRDIYFTQDWVSLPSVLPVASGGIHVWHMPALTEIFGDDSVLQFDGGTLGHPWGIAPSAVANRVALEACVQARNEGRDLAREGNEIIREASKWSPELAAACEVWKEIKFEFQAMDML
